No constants are given. Whether binding was seen depends on the method and setting. In cells and extracts the contact can be indirect. These calls come from enrichment with a bait or labelling near it, and not all partners need be listed.
Biological target: SIRT6-FLAG (human) (UniProt Q8N6T7)
Assay: affinity purification with mass spectrometry; SIRT6-FLAG overexpressing and control 293T cells treated with paclitaxel (M phase); anti-FLAG immunoprecipitation, SDS-PAGE, in-gel digestion, LC-MS/MS; SAINT score >= 0.85

Sequences of proteins named here, by UniProt entry; tags and fusion partners are left off.
UniProt Q8N6T7: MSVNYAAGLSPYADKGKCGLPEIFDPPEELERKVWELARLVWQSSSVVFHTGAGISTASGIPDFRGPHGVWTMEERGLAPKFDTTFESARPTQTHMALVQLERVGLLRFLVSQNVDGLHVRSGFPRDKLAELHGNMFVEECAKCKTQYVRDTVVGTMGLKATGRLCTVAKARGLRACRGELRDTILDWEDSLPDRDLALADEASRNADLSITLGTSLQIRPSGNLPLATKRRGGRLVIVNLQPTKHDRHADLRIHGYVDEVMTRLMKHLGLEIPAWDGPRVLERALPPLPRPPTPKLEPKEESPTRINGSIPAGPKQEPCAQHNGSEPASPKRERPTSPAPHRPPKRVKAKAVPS
UniProt Q13283: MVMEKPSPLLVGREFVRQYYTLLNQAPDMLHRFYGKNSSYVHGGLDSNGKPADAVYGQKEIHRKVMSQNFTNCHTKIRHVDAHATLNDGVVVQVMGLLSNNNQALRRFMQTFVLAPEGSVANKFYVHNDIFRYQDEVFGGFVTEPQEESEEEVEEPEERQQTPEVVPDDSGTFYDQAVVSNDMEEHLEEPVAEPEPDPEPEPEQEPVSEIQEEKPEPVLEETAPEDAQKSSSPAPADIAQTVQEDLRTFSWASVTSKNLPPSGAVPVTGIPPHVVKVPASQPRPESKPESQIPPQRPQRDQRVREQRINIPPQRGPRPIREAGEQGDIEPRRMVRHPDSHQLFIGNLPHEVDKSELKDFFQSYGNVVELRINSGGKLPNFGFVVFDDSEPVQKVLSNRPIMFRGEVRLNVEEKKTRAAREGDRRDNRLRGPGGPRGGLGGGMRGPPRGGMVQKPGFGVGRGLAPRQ

binding: binds
Substance: G3BP1 (from UniProt Q13283 1-466)
